Data taken from the supplement of paper PMC10849652.
Some of the results follow.

Amino acid sequences for entries named in this document (tags omitted). A change or cut given only in a name is not applied to a line headed by its entry.
UniProt Q9NXH8: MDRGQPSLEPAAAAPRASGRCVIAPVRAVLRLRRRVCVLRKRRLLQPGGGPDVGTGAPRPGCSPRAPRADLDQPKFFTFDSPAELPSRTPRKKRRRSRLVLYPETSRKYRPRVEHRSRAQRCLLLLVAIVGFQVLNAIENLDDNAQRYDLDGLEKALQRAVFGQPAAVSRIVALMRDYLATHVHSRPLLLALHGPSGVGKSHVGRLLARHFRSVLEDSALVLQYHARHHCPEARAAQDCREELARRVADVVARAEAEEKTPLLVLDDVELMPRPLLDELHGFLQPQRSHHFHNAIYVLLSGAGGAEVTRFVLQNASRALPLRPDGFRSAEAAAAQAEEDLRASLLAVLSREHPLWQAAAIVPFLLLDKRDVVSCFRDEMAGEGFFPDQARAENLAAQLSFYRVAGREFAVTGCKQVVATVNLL
UniProt Q96S44: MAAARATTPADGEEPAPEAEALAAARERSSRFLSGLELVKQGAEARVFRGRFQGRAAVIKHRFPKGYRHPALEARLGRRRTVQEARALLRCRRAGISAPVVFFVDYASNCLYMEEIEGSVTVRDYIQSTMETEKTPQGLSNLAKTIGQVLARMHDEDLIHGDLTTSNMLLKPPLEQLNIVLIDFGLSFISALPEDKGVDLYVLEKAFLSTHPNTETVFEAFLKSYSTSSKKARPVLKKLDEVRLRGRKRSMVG
UniProt Q8NDV7: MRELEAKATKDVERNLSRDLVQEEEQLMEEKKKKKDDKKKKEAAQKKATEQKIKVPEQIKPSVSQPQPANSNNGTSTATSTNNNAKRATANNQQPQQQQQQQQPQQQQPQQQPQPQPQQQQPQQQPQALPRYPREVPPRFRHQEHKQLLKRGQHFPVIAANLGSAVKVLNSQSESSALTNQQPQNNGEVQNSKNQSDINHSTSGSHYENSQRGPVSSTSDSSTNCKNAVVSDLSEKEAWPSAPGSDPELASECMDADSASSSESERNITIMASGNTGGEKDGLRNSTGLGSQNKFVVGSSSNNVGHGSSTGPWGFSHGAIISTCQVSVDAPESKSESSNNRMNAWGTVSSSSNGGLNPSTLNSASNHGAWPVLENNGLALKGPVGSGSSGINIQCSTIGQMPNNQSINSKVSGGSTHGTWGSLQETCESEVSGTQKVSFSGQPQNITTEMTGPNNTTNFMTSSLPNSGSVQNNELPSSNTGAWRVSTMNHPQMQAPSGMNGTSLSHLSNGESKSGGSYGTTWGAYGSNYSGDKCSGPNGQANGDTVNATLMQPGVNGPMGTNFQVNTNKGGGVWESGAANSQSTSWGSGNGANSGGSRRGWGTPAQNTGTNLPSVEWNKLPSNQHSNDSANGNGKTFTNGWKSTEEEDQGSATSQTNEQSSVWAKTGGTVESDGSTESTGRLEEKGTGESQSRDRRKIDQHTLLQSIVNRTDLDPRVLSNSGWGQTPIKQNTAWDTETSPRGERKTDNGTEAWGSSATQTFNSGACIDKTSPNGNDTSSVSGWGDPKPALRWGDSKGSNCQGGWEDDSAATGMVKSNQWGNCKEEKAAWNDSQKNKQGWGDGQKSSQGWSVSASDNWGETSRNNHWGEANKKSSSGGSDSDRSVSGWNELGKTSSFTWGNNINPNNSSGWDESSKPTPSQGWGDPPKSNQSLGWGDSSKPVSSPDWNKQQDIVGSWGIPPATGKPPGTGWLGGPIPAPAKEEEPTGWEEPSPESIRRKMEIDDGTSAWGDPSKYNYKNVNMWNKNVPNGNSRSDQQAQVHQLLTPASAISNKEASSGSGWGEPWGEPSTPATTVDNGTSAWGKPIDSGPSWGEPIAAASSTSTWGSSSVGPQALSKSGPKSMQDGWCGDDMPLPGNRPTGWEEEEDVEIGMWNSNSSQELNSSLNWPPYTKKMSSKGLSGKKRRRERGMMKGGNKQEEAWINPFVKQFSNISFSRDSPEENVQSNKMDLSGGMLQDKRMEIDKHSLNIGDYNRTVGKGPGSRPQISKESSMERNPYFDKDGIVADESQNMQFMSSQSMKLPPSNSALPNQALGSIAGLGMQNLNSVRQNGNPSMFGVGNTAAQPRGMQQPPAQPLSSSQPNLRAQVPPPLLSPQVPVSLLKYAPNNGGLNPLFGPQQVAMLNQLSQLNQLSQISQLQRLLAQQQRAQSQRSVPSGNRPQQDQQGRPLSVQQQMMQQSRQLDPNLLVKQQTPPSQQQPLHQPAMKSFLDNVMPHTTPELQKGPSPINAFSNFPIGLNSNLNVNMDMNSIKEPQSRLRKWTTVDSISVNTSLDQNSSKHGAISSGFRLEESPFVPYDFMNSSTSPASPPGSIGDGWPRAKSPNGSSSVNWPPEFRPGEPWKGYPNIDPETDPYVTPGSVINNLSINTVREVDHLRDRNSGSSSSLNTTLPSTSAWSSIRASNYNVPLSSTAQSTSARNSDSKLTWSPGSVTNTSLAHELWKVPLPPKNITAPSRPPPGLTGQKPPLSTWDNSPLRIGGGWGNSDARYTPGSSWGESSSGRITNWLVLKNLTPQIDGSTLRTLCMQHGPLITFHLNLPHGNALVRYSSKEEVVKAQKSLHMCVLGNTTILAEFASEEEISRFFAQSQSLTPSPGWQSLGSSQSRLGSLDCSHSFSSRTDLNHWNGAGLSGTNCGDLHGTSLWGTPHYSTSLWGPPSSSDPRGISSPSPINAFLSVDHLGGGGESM
UniProt Q6ZVM7: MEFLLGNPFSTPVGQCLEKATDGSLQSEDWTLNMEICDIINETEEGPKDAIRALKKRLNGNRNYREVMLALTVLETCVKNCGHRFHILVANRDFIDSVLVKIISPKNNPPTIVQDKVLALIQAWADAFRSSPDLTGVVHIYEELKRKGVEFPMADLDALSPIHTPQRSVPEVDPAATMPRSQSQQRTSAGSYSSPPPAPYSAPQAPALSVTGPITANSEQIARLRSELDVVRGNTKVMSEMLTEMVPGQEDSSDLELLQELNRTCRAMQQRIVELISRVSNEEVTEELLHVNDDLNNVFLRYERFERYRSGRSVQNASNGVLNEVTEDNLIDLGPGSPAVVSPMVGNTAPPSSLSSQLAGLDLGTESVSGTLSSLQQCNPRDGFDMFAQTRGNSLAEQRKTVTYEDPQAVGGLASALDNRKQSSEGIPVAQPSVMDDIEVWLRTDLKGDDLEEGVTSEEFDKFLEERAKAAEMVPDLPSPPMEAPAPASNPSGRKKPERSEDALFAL
UniProt P06753, whole entry, looked up: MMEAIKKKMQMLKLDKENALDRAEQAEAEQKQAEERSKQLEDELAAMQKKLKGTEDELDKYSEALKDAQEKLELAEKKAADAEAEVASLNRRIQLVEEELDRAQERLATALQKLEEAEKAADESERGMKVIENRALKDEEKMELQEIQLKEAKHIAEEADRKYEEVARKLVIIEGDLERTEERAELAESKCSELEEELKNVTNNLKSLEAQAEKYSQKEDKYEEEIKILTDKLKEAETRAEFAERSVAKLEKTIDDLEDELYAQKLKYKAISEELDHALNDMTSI
UniProt O95379: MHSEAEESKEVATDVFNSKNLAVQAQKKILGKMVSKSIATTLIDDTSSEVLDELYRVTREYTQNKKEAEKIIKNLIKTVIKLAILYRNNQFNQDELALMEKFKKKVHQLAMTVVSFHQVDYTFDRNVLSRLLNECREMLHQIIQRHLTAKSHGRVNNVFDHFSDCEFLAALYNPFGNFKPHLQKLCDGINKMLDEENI
UniProt O95985: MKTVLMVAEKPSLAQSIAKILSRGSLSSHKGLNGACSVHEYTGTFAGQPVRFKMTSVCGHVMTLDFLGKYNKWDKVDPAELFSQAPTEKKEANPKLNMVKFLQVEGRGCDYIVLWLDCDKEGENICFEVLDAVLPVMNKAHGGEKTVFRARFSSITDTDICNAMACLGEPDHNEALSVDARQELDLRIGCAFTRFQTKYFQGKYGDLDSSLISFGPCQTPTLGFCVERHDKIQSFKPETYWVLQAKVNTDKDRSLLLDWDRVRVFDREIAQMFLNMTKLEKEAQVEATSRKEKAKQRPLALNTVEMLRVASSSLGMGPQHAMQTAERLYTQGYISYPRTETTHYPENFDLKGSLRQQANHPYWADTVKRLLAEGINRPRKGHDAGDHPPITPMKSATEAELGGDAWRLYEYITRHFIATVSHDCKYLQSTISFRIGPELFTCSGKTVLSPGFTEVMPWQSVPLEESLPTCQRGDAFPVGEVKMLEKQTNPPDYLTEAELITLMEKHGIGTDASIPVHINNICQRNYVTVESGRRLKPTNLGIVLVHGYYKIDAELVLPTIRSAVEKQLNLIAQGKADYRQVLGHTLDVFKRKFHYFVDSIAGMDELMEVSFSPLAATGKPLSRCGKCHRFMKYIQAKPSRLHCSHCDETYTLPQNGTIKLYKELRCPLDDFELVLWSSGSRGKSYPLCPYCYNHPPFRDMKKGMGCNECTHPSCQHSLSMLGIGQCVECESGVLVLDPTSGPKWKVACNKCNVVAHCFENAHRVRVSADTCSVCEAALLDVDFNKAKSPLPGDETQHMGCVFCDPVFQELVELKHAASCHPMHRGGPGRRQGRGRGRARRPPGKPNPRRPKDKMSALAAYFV
UniProt P13693: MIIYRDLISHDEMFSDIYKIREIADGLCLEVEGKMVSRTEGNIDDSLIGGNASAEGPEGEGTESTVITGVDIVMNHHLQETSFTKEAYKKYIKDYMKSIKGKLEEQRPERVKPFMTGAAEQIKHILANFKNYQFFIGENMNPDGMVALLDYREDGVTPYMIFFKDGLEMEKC
UniProt O14787: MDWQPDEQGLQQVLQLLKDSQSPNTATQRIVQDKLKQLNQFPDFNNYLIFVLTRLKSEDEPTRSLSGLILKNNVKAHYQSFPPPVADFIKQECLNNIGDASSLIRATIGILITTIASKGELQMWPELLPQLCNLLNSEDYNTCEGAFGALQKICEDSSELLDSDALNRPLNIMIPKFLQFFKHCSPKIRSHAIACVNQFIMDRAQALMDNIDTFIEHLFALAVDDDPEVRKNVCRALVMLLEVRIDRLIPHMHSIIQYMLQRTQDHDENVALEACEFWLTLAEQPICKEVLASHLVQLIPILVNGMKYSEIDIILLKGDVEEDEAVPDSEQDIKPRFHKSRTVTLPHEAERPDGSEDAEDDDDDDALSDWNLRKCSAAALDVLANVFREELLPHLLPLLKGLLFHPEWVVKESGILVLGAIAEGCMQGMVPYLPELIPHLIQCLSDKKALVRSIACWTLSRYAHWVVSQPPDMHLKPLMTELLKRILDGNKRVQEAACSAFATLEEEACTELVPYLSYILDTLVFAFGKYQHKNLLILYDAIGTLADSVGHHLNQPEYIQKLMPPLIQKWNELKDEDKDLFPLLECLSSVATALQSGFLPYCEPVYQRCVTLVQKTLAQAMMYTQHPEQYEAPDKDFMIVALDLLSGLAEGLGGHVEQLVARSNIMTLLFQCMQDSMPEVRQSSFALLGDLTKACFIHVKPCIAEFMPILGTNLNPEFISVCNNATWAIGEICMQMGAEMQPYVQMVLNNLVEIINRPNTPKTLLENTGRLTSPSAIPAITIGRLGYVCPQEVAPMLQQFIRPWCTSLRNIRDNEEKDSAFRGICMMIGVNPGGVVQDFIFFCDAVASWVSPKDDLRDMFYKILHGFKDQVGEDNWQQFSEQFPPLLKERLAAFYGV
UniProt Q9Y320, whole entry, looked up: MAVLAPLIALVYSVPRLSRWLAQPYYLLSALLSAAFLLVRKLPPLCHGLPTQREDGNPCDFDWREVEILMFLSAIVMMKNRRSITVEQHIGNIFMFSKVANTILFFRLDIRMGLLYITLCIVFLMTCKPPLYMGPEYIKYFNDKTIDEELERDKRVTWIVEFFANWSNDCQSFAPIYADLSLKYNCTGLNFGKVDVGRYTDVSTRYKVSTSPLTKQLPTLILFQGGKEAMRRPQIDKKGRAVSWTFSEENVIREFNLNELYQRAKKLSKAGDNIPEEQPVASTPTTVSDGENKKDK
UniProt P63313: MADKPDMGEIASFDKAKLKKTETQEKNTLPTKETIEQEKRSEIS
UniProt Q71RG4: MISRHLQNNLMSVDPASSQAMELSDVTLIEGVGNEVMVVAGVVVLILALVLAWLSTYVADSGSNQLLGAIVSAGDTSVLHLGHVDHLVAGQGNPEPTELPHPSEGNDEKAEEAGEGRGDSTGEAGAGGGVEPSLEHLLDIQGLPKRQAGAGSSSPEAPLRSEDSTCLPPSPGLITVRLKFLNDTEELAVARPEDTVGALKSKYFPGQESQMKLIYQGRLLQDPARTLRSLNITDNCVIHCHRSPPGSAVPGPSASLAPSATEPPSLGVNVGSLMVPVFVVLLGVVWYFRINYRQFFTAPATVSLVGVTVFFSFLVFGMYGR
UniProt P62995: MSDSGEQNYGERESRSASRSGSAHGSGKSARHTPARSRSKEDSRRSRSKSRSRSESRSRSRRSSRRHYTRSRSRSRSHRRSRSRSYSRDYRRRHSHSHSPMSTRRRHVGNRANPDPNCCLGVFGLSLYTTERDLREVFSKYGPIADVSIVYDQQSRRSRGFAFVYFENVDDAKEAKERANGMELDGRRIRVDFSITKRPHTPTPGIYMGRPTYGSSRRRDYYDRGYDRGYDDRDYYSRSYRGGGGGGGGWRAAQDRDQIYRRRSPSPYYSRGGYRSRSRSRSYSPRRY

How the values were obtained:
Test in all cases: log2 fold change, soluble protein after heating vs DMSO (PISA); higher = thermal stabilisation; K562 lysate, 10 uM; active = over 0.2 and 3.5 SD of the protein, either way, in both replicates (recomputed)
[1] = compound: C1=CC=C(C=C1)[C@H](COC2=CC3=C(C=C2)NC(=O)N3)NC(=O)C4=CC=CN(C4=O)CC5=CC(=C(C=C5)F)F
How it was run: (§1)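 To prepare the extract, K562 pellets were dounce-homogenised in PBS pH 7.4 with 1 mM MgCl2, giving crude material at 1 mg/mL protein. This was treated with 10 μM compound for 30 min, then heated in aliquots for 3 min over 48°C-58°C before pooling and addition of NP-40 to 0.5% at 4°C. Centrifugation at 21,000xg for 90 min left soluble protein in the supernatant, which TMTpro 16plex LC-MS/MS quantified with equalised channel sums. Results are log-two fold changes in thermal stability compared with solvent controls, from duplicates.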

[2] = compound: CC1=C(SC2=C1C(=N[C@H](C3=NN=C(N32)C)CC(=O)N)C4=CC=C(C=C4)Cl)C
How it was run: as §1

[3] = compound: CC1=C2C(=CC=C1)N=C(N(C2=O)C3=CC=CC=C3C)CN4C=NC5=C(N=CN=C54)N
How it was run: as §1

[4] = compound: Cc1sc2c(c1C)C(c1ccc(Cl)cc1)=N[C@@H](CC(=O)OC(C)(C)C)c1nnc(C)n1-2
How it was run: as §1

[5] = compound: c1ccc([C@@H]2C[C@H]2NC2CCNCC2)cc1
How it was run: as §1

Measured: log2 fold change

TP53BP1 isoform 2 (UniProt Q12888)
inactive: [1] 0.009 | [2] 0.004 | [3] -0.009 | [4] 0.001 | [5] 0.019

TPR (UniProt P12270)
inactive: [1] 0.034 | [2] -0.012 | [3] -0.012 | [4] -0.005 | [5] 0.007

TOR4A (UniProt Q9NXH8)
inactive: [1] 0.01 | [2] 0.016 | [3] -0.001 | [4] -0.039 | [5] 0.018

TNPO1 (UniProt Q92973)
inactive: [1] -0.007 | [2] 0.012 | [3] 0.011 | [4] -0.029 | [5] 0.072

TNIK (UniProt C9J338)
inactive: [1] -0.028 | [2] 0.067 | [3] 0.135 | [4] -0.225 | [5] -0.375

TP53RK (UniProt Q96S44)
inactive: [1] 0.013 | [2] 0.021 | [3] -0.003 | [4] 0.073 | [5] 0.09

TPP2 (UniProt Q5VZU9)
inactive: [1] 0.004 | [2] -0.117 | [3] 0.001 | [4] 0.034 | [5] -0.08

2 records drawn at random from the list so far:
TP53BP1 isoform 2 (UniProt Q12888)
inactive: [1] 0.009 | [2] 0.004 | [3] -0.009 | [4] 0.001 | [5] 0.019

TNIK (UniProt C9J338)
inactive: [1] -0.028 | [2] 0.067 | [3] 0.135 | [4] -0.225 | [5] -0.375

Further entries follow:

TNRC6A (UniProt Q8NDV7)
inactive: [1] 0.045 | [2] -0.006 | [3] 0.069 | [4] -0.008 | [5] 0.062

TOM1L2 (UniProt Q6ZVM7)
inactive: [1] 0.073 | [2] -0.111 | [3] -0.017 | [4] -0.065 | [5] 0.026

TPM3 (UniProt P06753)
inactive: [1] -0.018 | [2] 0.008 | [3] -0.018 | [4] 0.015 | [5] 0.057

TNFAIP8 isoform 4 (UniProt O95379)
inactive: [1] -0.013 | [2] -0.033 | [3] 0.106 | [4] -0.05 | [5] 0.069

TMX3 (UniProt Q96JJ7)
inactive: [1] 0.007 | [2] -0.02 | [3] -0.008 | [4] -0.015 | [5] -0.023

TOP3B (UniProt O95985)
inactive: [1] -0.013 | [2] 0.014 | [3] 0.008 | [4] -0.006 | [5] 0.003

TPM1 (UniProt H7BYY1)
inactive: [1] -0.028 | [2] 0.017 | [3] 0.059 | [4] 0.031 | [5] 0.023

TPT1 (UniProt P13693)
inactive: [1] 0.04 | [2] -0.006 | [3] -0.025 | [4] 0.005 | [5] 0.006

TPMT (UniProt P51580)
inactive: [1] 0.011 | [2] -0.013 | [3] 0.016 | [4] -0.008 | [5] 0.006

TMF1 isoform 2 (UniProt P82094)
inactive: [1] 0.076 | [2] 0.006 | [3] 0.043 | [4] -0.05 | [5] -0.034

TNPO2 (UniProt O14787)
inactive: [1] 0.006 | [2] 0.018 | [3] 0 | [4] 0.026 | [5] 0.028

TNPO3 (UniProt Q9Y5L0)
inactive: [1] -0.024 | [2] 0.07 | [3] -0.003 | [4] 0.009 | [5] -0.029

TP53I3 (UniProt Q53FA7)
inactive: [1] 0.039 | [2] -0.019 | [3] -0.05 | [4] 0.013 | [5] -0.045

TMX2 (UniProt Q9Y320)
inactive: [1] 0.045 | [2] -0.019 | [3] 0.04 | [4] 0.034 | [5] -0.068

TMSB10 (UniProt P63313)
inactive: [1] 0.022 | [2] -0.018 | [3] -0.077 | [4] 0.167 | [5] 0.085

TMUB2 (UniProt Q71RG4)
inactive: [1] 0.066 | [2] -0.027 | [3] -0.009 | [4] -0.04 | [5] 0.009

TRA2B (UniProt P62995)
inactive: [1] 0.027 | [2] -0.029 | [3] 0.03 | [4] -0.026 | [5] 0.002
